Data on 58 compounds can be found in PubChem BioAssay AID2685 (National Center for Advancing Translational Sciences (NCATS), 2010).

The list shows a part of the results. The main result of the screen is listed elsewhere. These columns were measured beside it and carry no call. Compounds called inactive in the main read-out are mostly missing here. Words in brackets tell the shape of the fitted curve; partial curves, single points and poor fits give uncertain potencies.

One may read the AC50 as the concentration at which the activity in the assay is half-maximal.

The nature of the experiment: qHTS Assay for Lipid Storage Modulators in Drosophila S3 Cells.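 For cell number change: cells counted by Cell Tracker Red CMTPX staining in the red channel.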 As to conditions: BODIPY lipid droplet fluorescence, 18-24 h; for cell number change: measured here: cell count max response, cells fed with added oleic acid. In outline:
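Laser-scanning cytometry quantifies lipid droplet accumulation (500–530 nm total intensity; droplet/cell object ratio) in oleic acid-fed (400 uM added) Drosophila S3 cells treated with a concentration series. 20 uM Triacsin C defined 100% inhibition.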
(qHTS replaces the single test concentration by a dilution series.)

Where [1] appears, read: measured here: lipid fluorescence (Fed channel) AC50, cells fed with added oleic acid.
Setting [2] is: measured here: cell number channel AC50, cells fed with added oleic acid.

`C=CCN(CC=C)Cc1c(C)[nH]c2c(C)c(C)ccc2c1=O`: the cell number change was 0.594%. The AC50 under setting [1] was 0.184 µM [rising, full curve, poor fit].
With `CCOc1ccc(-c2csc(NNC3=NCCCCC3)n2)cc1`, the cell number change was -47.1%. Further, the concentration at half-maximal activity (AC50) under setting [2] was 29.1 µM [falling, single point]. Further, the half-maximal activity concentration (AC50) under setting [1] is 29.1 µM [falling, single point].
Regarding `Cc1csc(NC(=O)COCC(=O)O)c1-c1nc2ccccc2s1`, the cell number change was determined as 43.5%. Also, the AC50 under setting [2] is 16.4 µM [rising, single point]. The AC50 under setting [1] was 14.6 µM [rising, single point].
As to `CC(C)(C)OC(=O)N/N=C\c1ccc(OC(=O)c2ccco2)cc1`, the cell number change is 0.903%. Moreover, under setting [2], the concentration at half-maximal activity (AC50) is 0.58 µM [falling, single point]. Also, under setting [1], the half-maximal activity concentration (AC50) is 0.517 µM [falling, partial curve, poor fit].
Turning to `Cc1cccc(-n2ncc3c2CCCC3NC(=O)Cc2c(C)noc2C)c1C` (stereo unspecified), the cell number change was -51.1%. The AC50 under setting [2] was 35.5 µM [falling, single point]. Moreover, under setting [1], the AC50 is 20 µM [falling, partial curve].
For `COC(=O)c1ccc(/C=N/N2C(C)CCCC2C)cc1` (stereo unspecified), the cell number change worked out at 50.1%. Under setting [1], the AC50 was 13 µM [rising, partial curve].
As to `c1ccc(Nc2nc(-c3ccccn3)cs2)cc1`, the cell number change is -24.6%. Also, the AC50 under setting [1] is 7.31 µM [rising, partial curve].
Consider `O=C(O)COc1ccccc1/C=N/NC(=O)c1cccc(S(=O)(=O)Nc2cccc(Cl)c2)c1`, for which the cell number change worked out at 48.1%. Besides, the AC50 under setting [2] is 1.64 µM [rising, partial curve, poor fit].
For `Cc1cc(C)cc(N=c2c([N+](=O)[O-])nn(-c3ccc4c(c3)OCCO4)n2O)c1`, the cell number change was -56.8%. Also, under setting [2], the AC50 was 29.1 µM [falling, single point]. Moreover, the AC50 under setting [1] was 29.1 µM [falling, single point].
For the compound `O=C(COC(=O)CCC(=O)c1cccs1)Nc1ccc(S(=O)(=O)N2CCOCC2)cc1`, the cell number change was -6.48%. Further, under setting [1], the concentration at half-maximal activity (AC50) is 6.51 µM [rising, single point].
As for `O=C(Nc1ccc(CN2CCOCC2)cc1)c1cc2ccccn2n1`, the cell number change turned out to be 10.6%. Further, the AC50 under setting [1] is 36.6 µM [rising, partial curve, poor fit].
`Cc1ccc(NS(=O)(=O)c2c(C(=O)N3CCOCC3)c(C)n(C)c2C)cc1`: the cell number change was found to be 18.5%.
Take `CO/N=C/Cc1c([N+](=O)[O-])c(C)nn1C`: the cell number change amounted to 5.23%. In addition, the concentration at half-maximal activity (AC50) under setting [2] was 2.31 µM [falling, single point].
Regarding `S=C1NCCOCCOCCOCCOCCN1`, under setting [1], the half-maximal activity concentration (AC50) was 0.366 µM [falling, full curve].
The same measure, in the same setting: the value for `O=C(NCCCN1CCCC1=O)c1cccc(N2CCCC2=O)c1` was 0.164 µM [falling, full curve, poor fit].
As for `COc1ccccc1-c1nnc2sc(C3CCCCC3)nn12`, the cell number change was -17.8%. The AC50 under setting [1] was 29.1 µM [rising, single point].
For `CCn1c(-c2cc(Cl)ccc2OC)n[nH]c1=S`, the cell number change was -9.19%. The half-maximal activity concentration (AC50) under setting [1] was 0.184 µM [rising, full curve, poor fit].
For the compound `Cc1c(C=O)c(=O)n(-c2ccccc2)n1-c1ccccc1`, the cell number change stood at 1.88%. Moreover, the AC50 under setting [1] is 0.116 µM [falling, full curve, poor fit].
Regarding `Cc1c(Cl)cccc1NC(=O)C(=O)NNC(=O)c1ccccc1F`, the cell number change was determined as 21.5%. In addition, the AC50 under setting [1] was 2.91 µM [rising, single point].
In the case of `CCOc1ccc(NC(=O)CNC(=O)c2ccc(OC)c(OC)c2)cc1`, the cell number change came out at 52.6%. Besides, the half-maximal activity concentration (AC50) under setting [2] is 11.6 µM [rising, partial curve]. Under setting [1], the concentration at half-maximal activity (AC50) was 0.00517 µM [falling, full curve, poor fit].
On to `CCOc1ccc(-c2nc[nH]c2[N+](=O)[O-])cc1`, for which the cell number change was 3.38%. Under setting [1], the AC50 was 8.2 µM [falling, partial curve, poor fit].
With `CCOC(=O)C1CCN(C(=O)c2ccc3c(Cl)c4c(nc3c2)CCCC4)CC1`, the cell number change was determined as 18.5%. Moreover, the concentration at half-maximal activity (AC50) under setting [1] was 0.58 µM [falling, single point].
For `COCCOC(=O)C1=C(C)NC(=O)NC1c1cccc(F)c1` (stereo unspecified), the cell number change was -16.4%. Besides, the half-maximal activity concentration (AC50) under setting [1] is 0.231 µM [rising, full curve, poor fit].
`OCCC#Cc1ccc(CN2CCN(Cc3ccccc3)C(CCO)C2)cc1` (stereo unspecified): the cell number change was 5.48%. Besides, under setting [1], the AC50 was 0.00461 µM [falling, full curve, poor fit].
Consider `COc1ccc(-c2csc3nc(-c4ccccc4OC)oc(=O)c23)cc1`, for which the cell number change was -12.1%. Also, the concentration at half-maximal activity (AC50) under setting [1] is 18.4 µM [falling, partial curve, poor fit].
`O=C(NCc1nnc2c(C(F)(F)F)cc(Cl)cn12)C1CCCC1`: the cell number change was -2.02%.
As to `Cc1cc(NC(=O)C23CCC(C)(C(=O)O2)C3(C)C)no1` (stereo unspecified), the cell number change is -72%. Under setting [2], the AC50 is 29.1 µM [falling, single point].
Turning to `O=C(c1ccc([N+](=O)[O-])cc1)N(Cc1ccccc1)c1ccccn1`, the cell number change stood at 18.5%.
Turning to `COc1cccc(CNC(=O)C2CCN(S(=O)(=O)c3ccc4c(c3)NC(=O)CO4)CC2)c1`, the cell number change is -47.2%. Under setting [2], the AC50 is 29.1 µM [falling, single point].
With `CCC(C)(C)NC(=S)Nc1ccccc1C`, the cell number change turned out to be 4.43%.
For `O=C(Nc1ccccc1F)c1ccc([N+](=O)[O-])s1`, the cell number change is -45.8%. Besides, under setting [2], the AC50 was 32.6 µM [falling, single point]. Moreover, the concentration at half-maximal activity (AC50) under setting [1] was 18.4 µM [falling, single point].
`CCN(CC(=O)NCc1ccc(Cl)cc1)C(=O)c1oc2ccccc2c1C`: the cell number change turned out to be 28.6%. Moreover, the concentration at half-maximal activity (AC50) under setting [1] is 0.58 µM [falling, single point].
With `COc1ccc(N2CCN(C(=O)COC(=O)c3cccc(S(=O)(=O)Nc4ccccc4OC)c3)CC2)cc1`, the AC50 is, setting by setting: under setting [2], 6.51 µM [rising, single point]; under setting [1], 5.17 µM [rising, single point].
Regarding `CCOc1ccc2nc(SCC(=O)N3c4ccccc4Sc4ccccc43)sc2c1`, the cell number change was determined as 11%. The AC50 under setting [2] is 0.092 µM [rising, full curve]. Moreover, under setting [1], the AC50 is 0.206 µM [rising, full curve].
Turning to `N#Cc1ccc(Cl)cc1NC(=O)COC(=O)c1cccc(S(=O)(=O)N2CCOCC2)c1`, the cell number change was -10.6%. The AC50 under setting [1] is 0.058 µM [rising, full curve, poor fit].
Regarding `CCCCC(=O)Nc1ccc(C(=O)NCCN2CCOCC2)cc1`, the cell number change turned out to be 9.42%. For the same compound, the half-maximal activity concentration (AC50) under setting [1] was 1.84 µM [rising, partial curve, poor fit].
For the compound `O=C(CSc1nc2ccc(Nc3nc(N4CCOCC4)nc(N4CCOCC4)n3)cc2s1)NCc1ccco1`, the cell number change was -39.3%. Under setting [2], the AC50 is 29.1 µM [falling, single point]. Under setting [1], the AC50 was 23.1 µM [falling, single point].
`COc1ccc(NC2CCCN(C(=O)CCc3cn[nH]c3)C2)cc1` (stereo unspecified): the cell number change was determined as 23.1%. For the same compound, under setting [1], the AC50 was 0.00461 µM [rising, full curve, poor fit].
As for `Cn1c(/N=C/c2c(O)ccc3ccccc23)nc2ccccc21`, the cell number change was -2.02%. In addition, under setting [1], the concentration at half-maximal activity (AC50) is 0.58 µM [falling, full curve].
As for `O=C(CSc1nnc(SCc2ccc(Cl)cc2)s1)N/N=C/c1c[nH]c2ccccc12`, the cell number change is -75.2%. Moreover, under setting [2], the AC50 was 16.4 µM [falling, partial curve].
In the case of `O=[N+]([O-])c1cccc(-c2nnc(-c3ccc4c(c3)OCO4)o2)c1`, the cell number change stood at 83.3%. Also, the half-maximal activity concentration (AC50) under setting [2] was 0.259 µM [rising, full curve, poor fit]. Moreover, under setting [1], the half-maximal activity concentration (AC50) was 0.231 µM [rising, full curve].
As to `CC(C)c1ccc(S(=O)(=O)N2CCN(C(=S)NCc3ccco3)CC2)cc1`, the cell number change was 16.7%. The AC50 under setting [1] is 23.1 µM [rising, single point].
Turning to `CCn1c(COc2ccc(C)cc2)nnc1SCC(=O)Nc1cc(OC)ccc1OC`, the cell number change was -34.1%. Also, the AC50 under setting [2] is 0.82 µM [falling, full curve, poor fit].
As for `Cc1ccc(C(=O)Cn2cnc3ccccc3c2=O)cc1C`, under setting [1], the AC50 is 0.206 µM [rising, full curve, poor fit].
For `Cn1nc(-c2ccccc2)cc1NC(=O)c1cccs1`, the cell number change was -18.6%. For the same compound, the concentration at half-maximal activity (AC50) under setting [1] is 14.6 µM [falling, partial curve, poor fit].
For the compound `O=C(Nc1ccc2c(c1)OCCO2)c1oc2ccccc2c1NC(=O)C1CC1`, the cell number change is -50.5%.
As to `C=CCN1C(=O)c2ccc(C(=O)N3CCN(S(=O)(=O)c4ccc(C(C)C)cc4)CC3)cc2C1=O`, the cell number change came to 77.1%. Under setting [2], the half-maximal activity concentration (AC50) was 18.4 µM [rising, partial curve].
Turning to `CCOc1ccc(S(=O)(=O)NC(C)C(=O)NCc2ccc3c(c2)OCO3)cc1` (stereo unspecified), the cell number change was determined as 7.89%. Also, the concentration at half-maximal activity (AC50) under setting [1] was 5.62 µM [falling, single point].
Consider `Cc1cc(OC(=O)c2ccc(C(C)(C)C)cc2)c([N+](=O)[O-])c(=O)[nH]1`, for which the cell number change worked out at 1.89%.
With `COc1ccc(NC(=O)C2Cc3ccccc3CN2C(=O)c2ccco2)cc1` (stereo unspecified), the cell number change was found to be 14.1%. Besides, under setting [2], the concentration at half-maximal activity (AC50) was 0.00517 µM [rising, full curve, poor fit].
With `Cc1ccc2nsnc2c1NS(=O)(=O)c1c(C)ccc2nsnc12`, the cell number change is 15.5%. Further, the concentration at half-maximal activity (AC50) under setting [1] is 0.82 µM [rising, partial curve].
`COc1ccc(CNC(=O)CSc2nnc3nc(C)cc(C)n23)cc1OC`: the cell number change is -13.7%. In addition, the AC50 under setting [1] is 25.9 µM [falling, single point].
Turning to `CCN(CC)S(=O)(=O)c1ccc(OC)c(NC(=O)OCc2ccccc2)c1`, the cell number change was 33.3%. For the same compound, the AC50 under setting [2] was 20.6 µM [rising, single point].
Regarding `O=[N+]([O-])c1ccc(CN2CCN(Cc3c[nH]c4ccccc34)CC2)cc1`, the cell number change was -1.78%.
Take `N#Cc1ccccc1Cn1c(=O)n(C2CCCC2)c(=O)c2ccccc21`: the cell number change stood at 126%. The concentration at half-maximal activity (AC50) under setting [2] is 14.6 µM [rising, partial curve].
Take `Cc1cccc(C)c1NC(=O)COC(=O)c1cc(-c2cccnc2)nc2ccccc12`: the cell number change worked out at 12.8%. In addition, the AC50 under setting [1] was 0.00461 µM [rising, full curve, poor fit].
As to `CCC(=O)N1CCc2cc(S(=O)(=O)CCC(=O)NCCc3ccc(S(N)(=O)=O)cc3)ccc21`, the cell number change was 17.6%.
For the compound `Cc1ccc(Sc2c([N+](=O)[O-])c(=O)n(C)c3ccccc23)cc1`, the cell number change is -48.4%. For the same compound, the AC50 under setting [2] is 7.31 µM [falling, partial curve]. In addition, the AC50 under setting [1] is 5.8 µM [falling, full curve].
